The values that follow come from patent publication US11427612 (dated 2022).

The series is described as follows: general procedure: Fmoc solid-phase peptide synthesis; MeDbz-Gly-Rink (MeDbz linker on Rink or Wang resin). The following applies: whole synthesis.

Consider GLP-1(7-36), for which the isolated yield was 4%.
For GLP-1(7-36)-MeNbz-Gly-NH2, the crude yield came out at 45%.
